Values from PubChem BioAssay AID652259 (Drosophila RNAi Screening Center, 2013)
Test: 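Genome-wide hunt for genes that control Wingless pathway activity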 (primary screen). Cell system: Drosophila clone 8 imaginal disc epithelial cells. Reagents: long dsRNA against Drosophila genes. Conditions: pathway stimulated by co-transfected Wingless expression plasmid. Detection: 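Firefly luciferase from a tcf-site Wingless reporter, measured alongside co-transfected Renilla luciferase that tracks transfection; pathway stimulated by a Wingless plasmid; the firefly-to-Renilla ratio is not deposited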. Reading the numbers: firefly reporter light: higher = more Wg reporter light, before normalisation; Renilla control light: higher = more transfected or surviving cells. Rule for the call: 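a knock-down is a candidate when at least two out of four statistical tests show it departing from its plate mean; one test alone signals a weak candidate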. Calls: active = candidate regulator (raises or lowers reporter); inactive = not a candidate.
In all, the deposit lists about 22,000 reagents; shown is a random part of those with a known target gene and a result. In the full data, 233 (1.1%) are marked active. 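Light values are raw, unnormalised plate reads; the ratio scores behind the reporter calls were not deposited.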 Entries without a mark were called inactive. Reagents against one gene are numbered here. Names joined by + are all predicted targets of the reagent. Not stated in the record: the amount of reagent, the time to read-out, the dose of the treatment.

Gene | reagent | reporter change call, replicate 1 | firefly reporter light, replicate 1 | firefly reporter light, replicate 2 | Renilla control light, replicate 1 | Renilla control light, replicate 2
Dop1R2 (Dopamine 1-like receptor 2) | 1 | – | 4659 | – | 1947 | –
Dop1R2 (Dopamine 1-like receptor 2) | 2 | – | 5792 | – | 2251 | –
PolE2 (DNA polymerase epsilon subunit 2) | 1 | – | 4418 | – | 2069 | –
CG9119 | 1 | – | 16521 | – | 5771 | –
CG2540 | 1 | – | 2922 | 9077 | 1341 | 3056
CG8032 | 1 | – | 13409 | – | 3335 | –
Marf (Mitochondrial assembly regulatory factor) | 1 | – | 2352 | 7290 | 480 | 1841
CG5787 | 1 | – | 9922 | – | 2787 | –
Prp3 (Precursor RNA processing 3) | 1 | – | 13384 | – | 2652 | –
Kaz (Katazuke) | 1 | – | 9009 | – | 9400 | –
Ac3 (Adenylate cyclase 3) | 1 | – | 9697 | – | 2027 | –
CG30472 | 1 | – | 8.99e5 | 8.40e5 | 4.59e5 | 5.59e5
yps (ypsilon schachtel) | 1 | – | 13757 | – | 3037 | –
CG5727 | 1 | – | 12445 | – | 2957 | –
dj-1beta | 1 | – | 8778 | – | 2720 | –
ago (archipelago) | 1 | – | 5922 | – | 3184 | –
CG9630 | 1 | – | 3415 | – | 1767 | –
Sfp53D (Seminal fluid protein 53D) | 1 | – | 14717 | – | 12823 | –
Mtap (Methylthioadenosine phosphorylase) | 1 | – | 17091 | – | 6364 | –
fs(1)N (female sterile (1) Nasrat) | 1 | – | 23240 | – | 19408 | –
mRpL44 (mitochondrial ribosomal protein L44) | 1 | – | 5749 | – | 2409 | –
Prestin | 1 | – | 4152 | – | 2032 | –
CG42750 | 1 | – | 2976 | 9302 | 980 | 2757
CG42750 | 2 | – | 2208 | 10628 | 1414 | 4556
CG42750 | 3 | – | 3546 | 8233 | 1445 | 2832
CG42750 | 4 | – | 8.07e5 | 8.28e5 | 4.11e5 | 3.61e5
CG4480 | 1 | – | 2090 | 4299 | 954 | 2283
ND-13A (NADH dehydrogenase (ubiquinone) 13 kDa A subunit) | 1 | – | 3712 | 9366 | 1523 | 3718
hale (hale-bopp) | 1 | – | 15954 | – | 4731 | –
pad (poils au dos) | 1 | – | 18935 | – | 3769 | –
Sam-S (S-adenosylmethionine Synthetase) | 1 | – | 8709 | – | 2619 | –
CG7006 | 1 | – | 2204 | 9367 | 1259 | 2096
CG11630 | 1 | – | 2189 | 8373 | 770 | 2592
Uck (Uridine-cytidine kinase) | 1 | – | 2625 | – | 1415 | –
Uck (Uridine-cytidine kinase) | 2 | – | 16272 | – | 15958 | –
CG9130 + CG9133 | 1 | – | 8584 | – | 3715 | –
CG9130 + CG9133 | 2 | – | 18489 | – | 6653 | –
CG9130 + CG9133 | 3 | – | 4.92e5 | 5.20e5 | 1.69e5 | 1.75e5
Sec22 + CG13358 | 1 | – | 3156 | 9323 | 617 | 1457
rg (rugose) | 1 | – | 5316 | – | 2304 | –
rg (rugose) | 2 | – | 3691 | 3943 | 1052 | 1232
rg (rugose) | 3 | – | 25218 | – | 12621 | –
CG12581 | 1 | – | 9330 | – | 3802 | –
CG12581 | 2 | – | 16346 | – | 7273 | –
CG10182 | 1 | – | 14730 | – | 8490 | –
CG6225 | 1 | – | 12541 | – | 3525 | –
CG42254 (retired record) | 1 | – | 7085 | – | 2602 | –
Sms (Spermine synthase) | 1 | – | 5895 | – | 2224 | –
CG31627 | 1 | – | 5.36e5 | 5.98e5 | 2.05e5 | 2.05e5
CG4962 | 1 | – | 7958 | – | 3325 | –
CG43428 | 1 | – | 4837 | – | 2471 | –
CG34155 | 1 | – | 4608 | – | 1780 | –
Hsp83 (Heat shock protein 83) | 1 | Wg reporter activity raised | 15433 | – | 2870 | –
CG6678 | 1 | – | 3444 | 5024 | 1473 | 2019
CG10920 | 1 | – | 18288 | – | 9241 | –
CG5850 | 1 | – | 7273 | – | 2504 | –
Ald2 (Aldolase 2) | 1 | Wg reporter activity raised (active) | 28493 | – | 4219 | –
Ald2 (Aldolase 2) | 2 | – | 19815 | – | 16217 | –
pcx (pecanex) | 1 | – | 17811 | – | 14416 | –
pcx (pecanex) | 2 | – | 23125 | – | 20185 | –
pcx (pecanex) | 3 | – | 19065 | – | 14578 | –
pcx (pecanex) | 4 | – | 16813 | – | 15094 | –
pcx (pecanex) | 5 | – | 29136 | – | 15858 | –
pcx (pecanex) | 6 | – | 4445 | 11368 | 1616 | 3979
Cul4 (Cullin 4) | 1 | – | 4725 | – | 1085 | –
CG3565 | 1 | – | 13712 | – | 3893 | –
sbb (scribbler) | 1 | – | 16614 | – | 12653 | –
sbb (scribbler) | 2 | – | 5115 | – | 2649 | –
sni (sniffer) | 1 | – | 2307 | 4730 | 821 | 1721
wfs1 (wolfram syndrome 1) | 1 | – | 13208 | – | 12155 | –
Nup35 (Nucleoporin 35kDa) | 1 | – | 1996 | 7937 | 753 | 2732
Rab5 | 1 | Wg reporter activity raised (active) | 23498 | – | 2656 | –
lncRNA:CR30055 (long non-coding RNA:CR30055) | 1 | – | 5.67e5 | 5.42e5 | 1.78e5 | 1.44e5

4 entries from above, reformatted.
Gene,reagent,"reporter change call, replicate 1","firefly reporter light, replicate 1","firefly reporter light, replicate 2","Renilla control light, replicate 1","Renilla control light, replicate 2"
CG5787,1,,9922,,2787,
Prp3 (Precursor RNA processing 3),1,,13384,,2652,
Kaz (Katazuke),1,,9009,,9400,
Ac3 (Adenylate cyclase 3),1,,9697,,2027,
